From publication PMC6053418 come the findings set out here.

Chains of the proteins cited; added tags and fusions are not shown. A line that says so, or that is headed by a name, gives the form on record, which may keep a tag or linker.
CST (CTC1-STN1-TEN1) (Homo sapiens), one chain, as listed by the source, chain 3 of 3: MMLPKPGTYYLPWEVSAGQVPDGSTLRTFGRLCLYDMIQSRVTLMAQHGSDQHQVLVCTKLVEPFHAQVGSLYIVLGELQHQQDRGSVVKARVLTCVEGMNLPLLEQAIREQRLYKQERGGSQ
CST (CTC1-STN1-TEN1) (Homo sapiens), one chain, as listed by the source, chain 1 of 3: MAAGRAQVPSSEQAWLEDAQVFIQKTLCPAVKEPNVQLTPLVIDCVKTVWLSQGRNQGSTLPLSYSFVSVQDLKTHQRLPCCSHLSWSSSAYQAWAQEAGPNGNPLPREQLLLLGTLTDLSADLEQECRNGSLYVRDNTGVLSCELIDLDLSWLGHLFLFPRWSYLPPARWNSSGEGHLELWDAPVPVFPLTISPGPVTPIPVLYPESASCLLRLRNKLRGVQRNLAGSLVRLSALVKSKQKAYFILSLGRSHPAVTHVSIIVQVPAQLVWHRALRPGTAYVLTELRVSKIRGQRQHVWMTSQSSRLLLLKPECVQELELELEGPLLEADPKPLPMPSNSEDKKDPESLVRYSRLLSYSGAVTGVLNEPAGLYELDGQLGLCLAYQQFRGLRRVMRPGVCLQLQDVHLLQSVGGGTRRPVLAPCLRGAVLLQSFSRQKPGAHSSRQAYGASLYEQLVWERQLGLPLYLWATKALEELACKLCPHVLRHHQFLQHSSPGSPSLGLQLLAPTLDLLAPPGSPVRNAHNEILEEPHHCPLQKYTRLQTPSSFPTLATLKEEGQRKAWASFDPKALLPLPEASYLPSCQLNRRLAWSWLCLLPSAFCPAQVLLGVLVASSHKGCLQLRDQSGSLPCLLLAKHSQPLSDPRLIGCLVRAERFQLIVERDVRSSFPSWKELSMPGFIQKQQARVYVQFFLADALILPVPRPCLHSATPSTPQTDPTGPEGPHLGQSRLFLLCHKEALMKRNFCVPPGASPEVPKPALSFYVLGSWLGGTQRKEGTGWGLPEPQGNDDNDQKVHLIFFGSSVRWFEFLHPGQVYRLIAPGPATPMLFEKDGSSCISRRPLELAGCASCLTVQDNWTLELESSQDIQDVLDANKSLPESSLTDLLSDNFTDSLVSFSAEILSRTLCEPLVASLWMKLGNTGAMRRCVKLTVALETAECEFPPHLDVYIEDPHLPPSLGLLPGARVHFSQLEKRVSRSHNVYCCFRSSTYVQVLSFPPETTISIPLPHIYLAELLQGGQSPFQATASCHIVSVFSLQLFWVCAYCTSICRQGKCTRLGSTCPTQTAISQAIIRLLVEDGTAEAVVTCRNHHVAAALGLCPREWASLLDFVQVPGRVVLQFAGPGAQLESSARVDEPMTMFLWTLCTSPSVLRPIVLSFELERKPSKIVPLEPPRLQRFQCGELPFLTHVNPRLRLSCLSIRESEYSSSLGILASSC
CST (CTC1-STN1-TEN1) (Homo sapiens), one chain, as listed by the source, chain 2 of 3: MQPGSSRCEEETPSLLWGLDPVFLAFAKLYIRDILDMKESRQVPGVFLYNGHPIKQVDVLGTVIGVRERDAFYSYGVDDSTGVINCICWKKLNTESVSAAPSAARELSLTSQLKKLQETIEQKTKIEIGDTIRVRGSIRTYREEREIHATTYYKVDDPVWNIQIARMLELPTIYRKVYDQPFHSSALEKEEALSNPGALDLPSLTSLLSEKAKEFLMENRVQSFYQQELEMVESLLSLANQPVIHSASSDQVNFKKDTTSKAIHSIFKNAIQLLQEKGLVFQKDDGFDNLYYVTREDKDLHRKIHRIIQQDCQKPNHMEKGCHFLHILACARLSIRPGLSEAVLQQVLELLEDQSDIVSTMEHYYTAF

Experiment in all cases: EMSA
A general note: A gel shift assay detects complexes by their altered migration in electrophoresis.

Data set [1] has as its system CST (CTC1-STN1-TEN1) (Homo sapiens). The conditions noted are these: affinity very low; EMSA: 25 mM Tris-HCl pH 8.0, 100 mM NaCl, 1 mM DTT; 0.1 nM DNA, 30 min RT (Kd(app): 0.01 nM DNA, 18 h, 4 °C); recombinant protein; protein details: FLAG-CTC1, FLAG-STN1, untagged TEN1; label: 32P; single-stranded DNA.
In data set [2] the test system is CS (CTC1-STN1) (Homo sapiens). As to conditions: EMSA: 25 mM Tris-HCl pH 8.0, 100 mM NaCl, 1 mM DTT, 0.1 nM DNA, 30 min RT (Kd(app): 0.01 nM DNA, 18 h, 4 °C), recombinant protein, protein details: FLAG-CTC1, FLAG-STN1, label: 32P, single-stranded DNA.
The test system of data set [3] is ST (STN1-TEN1) (Homo sapiens). The conditions noted are these: 0.1 nM DNA, EMSA: 25 mM Tris-HCl pH 8.0, 100 mM NaCl, 1 mM DTT, 30 min RT (Kd(app): 0.01 nM DNA, 18 h, 4 °C), recombinant protein, protein details: FLAG-STN1, untagged TEN1, label: 32P, single-stranded DNA.

The exact form of at least one protein or probe is not confirmed. The comparison behind a weaker result is the experiment's own reference, which may not be listed here. At least one verdict was read from the data and is not stated in words by the source.

On to AGCGTATCCGTTCAGTTG [NonTel-18], for which the binding result in data set [1] and in data set [2] (affinity very low) was “binds more weakly” each time.

Take “AGCGTATCCGTTCAGTTGAGCGTATCCGTTCAGTTGAGCGTATCCGTT [NonTel-48]”: in data set [3], the binding result is listed as “binds more weakly”.

GCGTACTCAGTGACTCAGATCGAC [NonTel-26]: the binding result in data set [2] (binds very poorly) was “binds more weakly”.

As to “GGTTAGGGTTAGGGTTAGGGTTAGGGTTAGGGTTAG [Tel-36]”, the binding result in data set [3] is listed as “binds more weakly”.

For the sequence TTAGGGTTAG [Tel10], the binding result in data set [1] and in data set [2] (affinity very low) was “binds more weakly” each time.
